These results are taken from patent US20130065226A1, “METHOD OF DETERMINING DOSE AND ADMINISTRATION OF STATIN” (TOHOKU UNIVERSITY, priority 2011, published 2013).

The data set is described as follows: Human study: plasma lipid profiles, glucose, insulin and HOMA-IR. In kind it is in vivo. The note with it: healthy volunteers. The text has this:
The exclusion criteria included abnormal liver or kidney dysfunction before and during the statin administration and treatment.

Setting [1] is: 20 mg day^−1, after 2 weeks vs baseline.
Where [2] appears, read: fasting, 20 mg day^−1 oral, 2 weeks.

`CC(C)c1c(C(=O)Nc2ccccc2)c(-c2ccccc2)c(-c2ccc(F)cc2)n1CC[C@@H](O)C[C@@H](O)CC(=O)O` [atorvastatin]: under setting [1], the “Glucose, Change (%)” value was 1%; the “HOMA-IR, Change (%)” value is recorded as −5%; the “Insulin, Change (%)” value is −6%. Moreover, under setting [2], the “Glucose, After 2 weeks” value came to 98 ± 1.5 mg/dL; the “HOMA-IR, After 2 weeks” value is 2.0 ± 0.1; the “Insulin, After 2 weeks” value amounted to 8.3 ± 0.5 μIU ml^−1.
